The supplement of paper PMC8256030
“And” between values parts separate entries of the source, which are not always exact repeats. Identical values can stand only once. Some of the results follow. Repeats in this data set agree poorly, so a single value says little.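 HEK293T cells were given each compound shortly before transfection with a reporter in which red mCherry is followed by the SARS-CoV-2 frameshift element and then GFP in the −1 frame, so GFP appears only after frameshifting.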

Each compound was assayed on HEK293T (assay: percent viability (nuclei count) relative to control; higher = more viable cells). Conditions: 10 µM; 24 h.

| SMILES | percent viability |
| --- | --- |
| OC[C@@H](O)CN1CCN(c2ccccc2)CC1 [levodropropizine] | 177% |
| Nc1ccc(S(=O)(=O)Nc2ccccc2)cc1 [sulfabenz] | 45.8% |
| NC[C@H]1O[C@H](O[C@H]2[C@H](O[C@@H]3O[C@H](CO)[C@@H](O)[C@H]3O)[C@@H](O)[C@H](N)C[C@@H]2N)[C@H](N)[C@@H](O)[C@@H]1O | 191% |
| C=C(C)Cn1c(N)cc(=O)n(C)c1=O [amisometradine] | 292% |
| CC(C)NCC(O)COc1cccc2ccccc12 (stereo not given) [propranolol] | 198% |
| O=C1NCC2(CCN(CCc3ccccc3)CC2)O1 [Fenspiride] | 353% |
| Cc1cc(C#N)cc(C)c1Oc1nc(Nc2ccc(C#N)cc2)nc(N)c1Br [etravirine] | 48% |
| COc1cc(C(=O)NCCCCCC(=O)O)cc(OC)c1OC [capobenic acid] | 270% |
| COc1ccnc(C[S+]([O-])c2nc3cc(OC(F)F)ccc3[nH]2)c1OC (stereo not given) | 272% |
| COc1cc(C)c2c(Oc3cccc(C(F)(F)F)c3)c(OC)cc(NC(C)CCCN)c2n1 (stereo not given) [tafenoquine] | 140% |
| CC(C)NCC(O)COc1ccc(CCOCC2CC2)cc1 (stereo not given) | 173% |
| CC1=Nc2ccc(Cl)cc2S(=O)(=O)N1 [Diazoxide] | 141% |
| CC(C[N+](C)(C)C)OC(N)=O (stereo not drawn) [Carbamyl-beta-methylcholine] | 283% |
| CO[C@H]1C(=O)[C@]2(C)[C@@H](OC)C[C@H]3OC[C@@]3(OC(C)=O)[C@H]2[C@H](OC(=O)c2ccccc2)[C@]2(O)C[C@H](OC(=O)[C@H](O)[C@@H](NC(=O)OC(C)(C)C)c3ccccc3)C(C)=C1C2(C)C [Jevtana] | 58.4% |
| c1ccc2c(c1)CCCC2C1=NCCN1 (stereo not given) [tetryzoline] | 184% |
| COc1cc(N)c(Cl)cc1C(=O)NC1CCN(CCCOc2ccc(F)cc2)CC1OC (stereo not given) [cisapride] | 218% |
| CCc1nn(CCCN2CCN(c3cccc(Cl)c3)CC2)c(=O)n1CCOc1ccccc1 [Nefazodone] | 161% |
| CCOc1ccc(/N=N/c2ccc(N)cc2N)cc1 [etoxazene] | 180% |
| Nc1ccn([C@H]2CO[C@@H](CO)S2)c(=O)n1 [apricitabine] | 126% |
| CCC(=O)NCC[C@@H]1CCc2ccc3c(c21)CCO3 [ramelteon] | 282% |

| SMILES | percent viability |
| --- | --- |
| Cc1cn([C@H]2C[C@H](N=[N+]=[N-])[C@@H](CO)O2)c(=O)[nH]c1=O [zidovudine] | 366% and 218% |
| CC(C)(Oc1ccc(Cl)cc1)C(=O)O [clofibric acid] | 215% |
| C=C(NC(=O)c1csc(-c2nc3c(cc2O)-c2nc(cs2)C(=O)NC(C(C)O)C(=O)N/C(=C\C)c2nc(cs2)C(=O)NC2CC(O)C(=O)OCc4cccc5[nH]c(c(C)c45)C(=O)SCC(NC(=O)c4csc2n4)c2nc-3cs2)n1)C(N)=O (stereo not given) [nosiheptide] | 178% |
| CC(=O)Oc1cc2c(s1)CCN(C(C(=O)C1CC1)c1ccccc1F)C2 (stereo not given) [prasugrel] | 231% |
| Nc1nc(F)nc2c1ncn2[C@@H]1O[C@H](CO)[C@@H](O)[C@@H]1O [fludarabine] | 63% |
| C=CCc1ccccc1OCC(O)CNC(C)C (stereo not given) | 362% |
| CCC(CC)CC1(C(=O)Nc2ccccc2SC(=O)C(C)C)CCCCC1 [dalcetrapib] | 322% |
| O=C(O)COc1ccc(C(=O)/C=C/c2ccc(C(=O)O)cc2)cc1 [cinfenoac] | 109% |
| C[C@H](CCC(=O)O)[C@H]1CC[C@H]2[C@@H]3C(=O)C[C@@H]4CC(=O)CC[C@]4(C)[C@H]3CC(=O)[C@]12C [dehydrocholate sodium] | 184% |
| C[C@]12CC[C@@H]3c4ccc(O)cc4CC[C@H]3[C@@H]1C[C@@H](O)[C@@H]2O [Estriol] | 272% |
| C[N+](C)(C)CCOC(=O)CCC(=O)OCC[N+](C)(C)C [Succinylcholine] | 148% |
| CN1CCC(=C2c3ccccc3Sc3ccccc32)CC1 [pimethixene] | 479% |
| COC[C@@H](c1ccc(C(F)(F)F)cc1)N1CCN(C2(C)CCN(C(=O)c3c(C)ncnc3C)CC2)C[C@@H]1C [vicriviroc] | 278% |
| COc1cc(/C=C/C(=O)N2CCN(CC(=O)N3CCCC3)CC2)cc(OC)c1OC [cinepazide] | 184% |
| CC1=C(CC(=O)O)c2cc(F)ccc2/C1=C\c1ccc([S+](C)[O-])cc1 (stereo not given) [sulindac] | 148% |
| CC(=O)N[C@@H](CC(=O)N[C@@H](CCC(=O)O)C(=O)O)C(=O)O [Spaglumic Acid] | 54.5% |
| CN1CCN(CCC(=O)N2c3ccccc3Sc3ccc(C(F)(F)F)cc32)CC1 [ftormetazine] | 14.4% |
| N[C@@H](Cc1ccc(O)cc1)C(=O)O | 109% |
| CN1CCCC(n2nc(Cc3ccc(Cl)cc3)c3ccccc3c2=O)CC1 (stereo not given) [azelastine] | 283% |
| CCCCCCOc1ccccc1C(N)=O [exalamide] | 281% |
